Results taken from patent US20050202440A1.

Target: androgen receptor ligand binding domain (AR LBD) bound with DHT (chimp construct; LBD sequence stated identical to human)
Test: co-crystallization; crystal diffracted to 1.66 A

KHKILHRLLQDSS [GRIP1 NR Box 2 peptide]
binding: binds

Results are given in words; binding and its absence hold for the method and conditions named. A result given as binding can be weak or reduced; the word gives no strength.
